In the supplement of paper PMC12889115:
Some of the results follow. Values are raw readings; no control value is given beside them.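 Primary screen: polymyxin B was added at a level permeabilizing Salmonella outer membranes while sparing inner membranes. DMSO wells, both with and without polymyxin B, established maximum growth. Plate-to-plate variation meant each plate was ranked on its own, and the lowest-OD600 compounds were selected as hits.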

Tested on: Salmonella enterica serovar Typhimurium SL1344
Assay: bacterial growth OD600 after 18 h with compound and polymyxin B; higher = more bacterial growth (less inhibition)
Details: 50 µM, Mueller-Hinton broth

Row | SMILES | bacterial growth OD600 (polymyxin B 1 µg/mL) | bacterial growth OD600 (polymyxin B 0.75 µg/mL)
1 | CS(=O)(=O)N1CCC(Oc2cccc(C(=O)NCCCc3ccccc3)c2)CC1 | 0.924 | –
2 | COc1ccc(F)c(CC2(CCC(=O)NCc3cccc(OC(F)(F)F)c3)CCC(=O)N2)c1 (stereo unspecified) | – | 0.732
3 | Cc1ccn(CC(=O)N2CCC(C3(Cc4cccc(F)c4)NC(=O)N(CC(C)C)C3=O)CC2)n1 (stereo unspecified) | – | 0.9
4 | CN(CCc1cn[nH]c1)C(=O)C1(N2CCCCC2)Cc2ccccc2C1 | – | 0.007
5 | OCC1(Cc2cccc(C(F)(F)F)c2)CCN(Cc2ccc3ncccc3c2)CC1 | – | 0.53
6 | O=C(CCC1(Cc2ccc(F)cc2)CCC(=O)N1)NC(c1ccccc1)c1ccc(Cl)cc1 (stereo unspecified) | – | 0
7 | O=C(NCC1CCCO1)c1ccc2oc(-c3ccc(C(F)(F)F)cc3)nc2c1 (stereo unspecified) | – | 0.212
8 | COc1ccccc1OCC(=O)NCC1CCCN(C/C=C/c2ccc(F)cc2)C1 (stereo unspecified) | 1.03 | –
9 | CCOC(=O)N1CCN(C(=O)c2ccc(N3CCC(NCCc4c(C)n[nH]c4C)CC3)cc2)CC1 | – | 0.849
10 | NC(=O)[C@H](Cc1ccccc1)NC1CCN(c2cccc(NS(=O)(=O)c3ccc(F)cc3)c2)CC1 | – | 0.748
11 | CC(CCCC(C)(C)O)Nc1nncc(-c2ccccc2F)n1 (stereo unspecified) | 1.03 | –
12 | Cn1ccnc1CNC(=O)CC(c1ccccc1)c1ccccc1Cl (stereo unspecified) | 0.846 | –
13 | CN(Cc1ccon1)Cc1cn(-c2ccc(F)cc2)nc1-c1ccccc1Cl | 0.155 | –
14 | Cc1cc(C)n(Cc2cc(C(=O)N3CCCC3c3ccccn3)n[nH]2)n1 (stereo unspecified) | 0.877 | –
15 | Cc1ncc(CN2CCCC(CNC(=O)c3cccc(C(F)(F)F)c3)C2)s1 (stereo unspecified) | 1.02 | –
16 | Cc1ccc2oc(C(=O)N3CCN(CC(=O)NC(C)C)CC3)c(C)c2c1 | 1.11 | –

Row | SMILES | bacterial growth OD600 (polymyxin B 1 µg/mL) | bacterial growth OD600 (polymyxin B 0.75 µg/mL)
17 | COC(=O)C1CCCCN1C(=O)c1c(OC)cc(=O)n2c1CCN(Cc1cccc(OC)c1)CC2 (stereo unspecified) | – | 0.847
18 | O=C(Cc1cscn1)N1CCC(C2(c3ccccn3)NC(=O)N(CCc3cccs3)C2=O)CC1 (stereo unspecified) | – | 0.778
19 | COc1cccc(-c2ccnc(-n3ncc(C(=O)N4CCN(CCO)CC4)c3C3CC3)n2)c1 | – | 0.996
20 | O=C(CCN1CCCCO1)N1CCc2onc(-c3ccc(F)c(F)c3)c2C1 | – | 0.812
21 | COc1ccc(CN2CCN(Cc3ccc(Cl)cc3)CC2CCO)cc1C (stereo unspecified) | 0.976 | –
22 | Cc1ccoc1C(=O)NC1CC(=O)N(Cc2cccc3ccccc23)C1 (stereo unspecified) | 0.856 | –
23 | COc1ccc(CCNC(=O)c2cn(C(C)C)cc(C(=O)NC(C)(C)C)c2=O)cc1OC | – | 0.723
24 | COc1cccc(C(=O)C2CCCN(Cc3nc(-c4ccccc4)cs3)C2)c1 (stereo unspecified) | – | 0.162
25 | Cc1cc(C)nc(CNC(=O)c2cccc(OC3CCN(S(C)(=O)=O)CC3)c2)n1 | 1.02 | –
26 | CCC(NC(=O)C1(N2CCN(CC)CC2)Cc2ccccc2C1)c1ccncc1 (stereo unspecified) | – | 0.912
27 | COCCn1cnc2cc(NC(=O)C3CCCCC3)cc(C(=O)N3CCC(c4ccccc4)CC3)c21 | – | 0.009
28 | O=C(NCc1ccccn1)c1cccc(OC2CCN(C(=O)C3CCCC3)CC2)c1 | 1.01 | –
29 | c1ccc(COC2CCN(Cc3nc(-c4ccc5c(c4)OCO5)no3)CC2)nc1 | 0.913 | –
30 | C=CCC(O)(CC=C)C(C)NC(=O)C1CCCN1c1nc(C)c2cc(OC)ccc2n1 (stereo unspecified) | – | 0.772
31 | O=C(CCc1ccccc1)Nc1ccc(N2CCC(NCCCOc3cccnc3)CC2)cc1 | – | 0.827

Random excerpt: 2 compounds from above, in no set order.
Row | SMILES | bacterial growth OD600 (polymyxin B 1 µg/mL) | bacterial growth OD600 (polymyxin B 0.75 µg/mL)
19 | COc1cccc(-c2ccnc(-n3ncc(C(=O)N4CCN(CCO)CC4)c3C3CC3)n2)c1 | – | 0.996
21 | COc1ccc(CN2CCN(Cc3ccc(Cl)cc3)CC2CCO)cc1C (stereo unspecified) | 0.976 | –
